PubChem BioAssay AID330 (DTP/NCI, 2004)
The list is a part of this screen's results and no random one: it gathers tests that were run many times, whatever their T/C, doses with no T/C, and many T/C values between a quarter and a half above the control. Other doses and runs of a compound stand elsewhere. T/C is the treated group as % of the vehicle group. Some doses have a count of surviving animals in place of a T/C: the source holds a T/C of zero for them, seemingly a mark for toxic or unscored doses. Some survivor counts are full or nearly so, which does not show that the dose was tolerated: survival well below the control is almost never listed, so the zero probably covers shortened survival too. Counts of survivors are from the toxicity check (mostly the fifth day) where no day follows; animals may have died later. Schedules are NCI's codes, taken here to give the interval after Q, in days (D) or hours (H), and the number of doses after X. Signs of the kind (2×) say how often a value occurs here. Some structures stand for samples that the source files as different forms (salt, stereo form or complex); doses refer to the form tested. Some doses were run more than once; the values are given in rising order. For survival time, the PubChem record calls one and a half times the control and up active, and a quarter to a half above the control has no call in these data; cut-offs in other NCI protocols can differ. Some T/C values carry the count of animals alive at the toxicity check (mostly the fifth day); where none is given, no animal had died by that day.

Tested on: P388 leukemia ip, CD2F1 mice, survival T/C
Experiment: NCI In Vivo Anticancer Drug Screen. Data for tumor model P388 Leukemia (intraperitoneal) in CD2F1 (CDF1) mice
Details: T/C endpoint: median survival time, higher T/C = longer survival
[1] = dose: 200.0 mg/kg/injection, schedule: Q01DX009 (ip), vehicle: Klucel (hydroxypropylcellulose) (HPC)
[2] = dose: 120.0 mg/kg/injection, schedule: Q01DX005 (ip), vehicle: saline with Tween-80
[3] = dose: 240.0 mg/kg/injection, schedule: Q01DX005 (ip), vehicle: saline with Tween-80
[4] = dose: 50.0 mg/kg/injection, schedule: Q01DX009 (ip), vehicle: Klucel (hydroxypropylcellulose) (HPC)
[5] = dose: 100.0 mg/kg/injection, schedule: Q01DX009 (ip), vehicle: Klucel (hydroxypropylcellulose) (HPC)
[6] = dose: 25.0 mg/kg/injection, schedule: Q01DX009 (ip), vehicle: water
[7] = dose: 50.0 mg/kg/injection, schedule: Q01DX009 (ip), vehicle: water
[8] = dose: 100.0 mg/kg/injection, schedule: Q01DX009 (ip), vehicle: water
[9] = dose: 200.0 mg/kg/injection, schedule: Q01DX005 (ip), vehicle: saline with Tween-80

C[N+](C)(C)C.O=C([CH-]C(=O)C(F)(F)F)c1ccccc1.O=C([CH-]C(=O)C(F)(F)F)c1ccccc1.O=C([CH-]C(=O)C(F)(F)F)c1ccccc1.O=C([CH-]C(=O)C(F)(F)F)c1ccccc1.[Eu+3]
T/C [1]: 125 % of control
survivor count (dose: 200.0 mg/kg/injection, schedule: Q01DX009 (ip), vehicle: saline with Tween-80): 1 of 6
survivor count (dose: 400.0 mg/kg/injection, schedule: Q01DX009 (ip), vehicle: saline with Tween-80): 0 of 6

COC(=O)c1cc(Cl)ccc1NCC(N)c1ccccc1 (stereo not drawn)
survivor count [2]: 6 of 6
survivor count [3]: 2 of 6

CCCCN(CCCC)C(Cl)=Nc1ccccc1
T/C [4]: 131 % of control [5 of 6 alive]
survivor count [5]: 1 of 6
survivor count [1]: 2 of 6

O=C1C2C(C(=O)N1c1ccccc1)C1(c3cccnc3)NC(=O)C2(Cc2cccnc2)c2ccccc21 (stereo not drawn)
survivor count [2]: 6 of 6

COc1cccc2c1C(=O)c1c(O)c3c(c(O)c1C2=O)C[C@@](O)(C(C)O)C[C@@H]3OC1CC(N2CCOCC2C#N)C(O)C(C)O1 (stereo partly drawn)
T/C (dose: 0.05 mg/kg/injection, schedule: Q04DX003 (ip), vehicle: water): 134 % of control
survivor count (dose: 0.2 mg/kg/injection, schedule: Q04DX003 (ip), vehicle: water): 6 of 6 on day 9
survivor count (dose: 0.39 mg/kg/injection, schedule: Q04DX003 (ip), vehicle: distilled water + Tween-80): 0 of 6 on day 9
survivor count (dose: 0.78 mg/kg/injection, schedule: Q04DX003 (ip), vehicle: distilled water + Tween-80): 0 of 6 on day 9
survivor count (dose: 1.56 mg/kg/injection, schedule: Q04DX003 (ip), vehicle: distilled water + Tween-80): 0 of 6 on day 9
survivor count (dose: 3.12 mg/kg/injection, schedule: Q04DX003 (ip), vehicle: distilled water + Tween-80): 0 of 6 on day 9
survivor count (dose: 6.25 mg/kg/injection, schedule: Q04DX003 (ip), vehicle: distilled water + Tween-80): 0 of 6 on day 9
survivor count (dose: 12.5 mg/kg/injection, schedule: Q04DX003 (ip), vehicle: distilled water + Tween-80): 0 of 6 on day 9

C/C(=N/N=C(N)N)c1ccc(NC(=O)Nc2ccc(/C(C)=N/N=C(N)N)cc2)cc1
T/C (dose: 3.13 mg/kg/injection, schedule: Q01DX009 (ip), vehicle: water, evaluated on day 30): 129 and 132 % of control
T/C (dose: 3.13 mg/kg/injection, schedule: Q01DX009 (ip), vehicle: water, evaluated on day 35): 127 % of control
T/C (dose: 6.25 mg/kg/injection, schedule: Q01DX009 (ip), vehicle: water, evaluated on day 30): 145 % of control
T/C (dose: 6.25 mg/kg/injection, schedule: Q01DX009 (ip), vehicle: water, evaluated on day 35): 131 % of control
T/C (dose: 12.5 mg/kg/injection, schedule: Q01DX009 (ip), vehicle: water, evaluated on day 30): 133, 140, 145 % of control
T/C (dose: 12.5 mg/kg/injection, schedule: Q01DX009 (ip), vehicle: water, evaluated on day 35): 140 % of control
T/C (dose: 25.0 mg/kg/injection, schedule: Q01DX009 (ip), vehicle: water, evaluated on day 30): 151 and 155 % of control
T/C (dose: 25.0 mg/kg/injection, schedule: Q01DX009 (ip), vehicle: water, evaluated on day 35): 158 % of control
survivor count [6]: 5 of 6
T/C (dose: 25.0 mg/kg/injection, schedule: Q04DX003 (ip), vehicle: saline with Tween-80): 140 % of control
T/C [7]: 91 and 100 % of control
survivor count [7]: 4 of 6 (2×)
T/C (dose: 50.0 mg/kg/injection, schedule: Q04DX003 (ip), vehicle: saline with Tween-80): 140 % of control
T/C (dose: 66.0 mg/kg/injection, schedule: Q04DX003 (ip), vehicle: saline with Tween-80): 136 % of control
survivor count [8]: 0 of 6 and 2 of 6
T/C (dose: 100.0 mg/kg/injection, schedule: Q04DX003 (ip), vehicle: saline with Tween-80): 136 % of control
survivor count (dose: 200.0 mg/kg/injection, schedule: Q01DX009 (ip), vehicle: water): 0 of 6

COc1ccc(N=Nc2c(O)n(-c3ccc(Br)cc3)c(=S)n(-c3ccc(OC)cc3)c2=O)cc1
survivor count (dose: 400.0 mg/kg/injection, schedule: Q04DX003 (ip), vehicle: saline with Tween-80): 6 of 6

COc1cc2c[n+](C)c3c4cc5c(cc4ccc3c2cc1OC)OCO5 (tested in a mixture with another compound)
T/C (dose: 1.56 mg/kg/injection, schedule: Q01DX009 (ip), vehicle: other): 127 % of control
T/C (dose: 6.25 mg/kg/injection, schedule: Q01DX009 (ip), vehicle: water): 137 % of control
T/C (dose: 11.1 mg/kg/injection, schedule: Q01DX009 (ip), vehicle: other): 128 % of control
T/C (dose: 12.5 mg/kg/injection, schedule: Q01DX009 (ip), vehicle: Klucel (hydroxypropylcellulose) (HPC)): 142 % of control
T/C (dose: 12.5 mg/kg/injection, schedule: Q01DX009 (ip), vehicle: water): 147 % of control
T/C (dose: 16.7 mg/kg/injection, schedule: Q01DX009 (ip), vehicle: other): 143 % of control
T/C (dose: 25.0 mg/kg/injection, schedule: Q01DX009 (ip), vehicle: Klucel (hydroxypropylcellulose) (HPC)): 131 % of control
survivor count (dose: 25.0 mg/kg/injection, schedule: Q01DX009 (ip), vehicle: other): 6 of 6
T/C [6]: 131 % of control
survivor count (dose: 37.5 mg/kg/injection, schedule: Q01DX009 (ip), vehicle: other): 4 of 6
survivor count [4]: 6 of 6
survivor count [5]: 4 of 6
survivor count [8]: 4 of 6

COC12CC3C4=CCOC5CC(=O)N6c7ccccc7C1(CCN2C4)C6C53 (stereo not drawn)
survivor count (dose: 60.0 mg/kg/injection, schedule: Q01DX005 (ip), vehicle: saline with Tween-80): 0 of 6
survivor count [2]: 0 of 6
survivor count [3]: 0 of 6

O=C1OCC/C1=C1/Nc2ccccc2NC1=O
survivor count (dose: 100.0 mg/kg/injection, schedule: Q01DX009 (ip), vehicle: saline with Tween-80): 6 of 6

COc1cc(C(=O)Oc2c(OC)cc(C(=O)c3cc4c(cc3C)OCO4)cc2OC)cc(OC)c1OC
survivor count (dose: 200.0 mg/kg/injection, schedule: Q01DX005 (ip), vehicle: Klucel (hydroxypropylcellulose) (HPC)): 5 of 6

O=[N+]([O-])c1ccc([O][Pb]([c]2ccccc2)([c]2ccccc2)[c]2ccccc2)cc1
survivor count [4]: 0 of 6
survivor count [5]: 0 of 6
survivor count [1]: 0 of 6

Cc1nc(C)c(Cl)c(OS(=O)(=O)CCCCl)c1Cl
survivor count (dose: 75.0 mg/kg/injection, schedule: Q01DX009 (ip), vehicle: Klucel (hydroxypropylcellulose) (HPC)): 5 of 6
survivor count [5]: 2 of 6
survivor count [1]: 1 of 6

N#[N+]c1ccc2c(S(=O)(=O)Oc3ccc(C(=O)c4ccccc4)c(OS(=O)(=O)c4cccc5c([O-])c([N+]#N)ccc45)c3)cccc2c1[O-]
survivor count (dose: 100.0 mg/kg/injection, schedule: Q01DX005 (ip), vehicle: saline with Tween-80): 1 of 5
survivor count [9]: 0 of 5

CCOC(=O)N1CCNCC1
survivor count (dose: 400.0 mg/kg/injection, schedule: Q04DX003 (ip), vehicle: saline): 2 of 6

N#CC1=C(C#N)Sc2nc3cc(Cl)ccc3nc2S1
survivor count (dose: 25.0 mg/kg/injection, schedule: Q01DX009 (ip), vehicle: saline): 5 of 6
survivor count (dose: 50.0 mg/kg/injection, schedule: Q01DX009 (ip), vehicle: saline): 5 of 6
survivor count (dose: 100.0 mg/kg/injection, schedule: Q01DX009 (ip), vehicle: saline): 4 of 6
survivor count (dose: 200.0 mg/kg/injection, schedule: Q01DX009 (ip), vehicle: saline): 2 of 6

N#C/C(=C1/OC(=N)C(c2c(Cl)cccc2Cl)C1=O)c1c(Cl)cccc1Cl (stereo not drawn)
survivor count [9]: 3 of 6

O=C(c1ccc(-c2ccccc2)cc1)C(Br)C(Br)c1ccccc1 (stereo not drawn)
survivor count (dose: 50.0 mg/kg/injection, schedule: Q01DX009 (ip), vehicle: other): 6 of 6
